PubChem BioAssay AID1259254 – NCATS, 2017
The deposit covers about 59,000 reagents; this is an unselected part. About 1,550 of them (2.6%) were called active. 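G2 share is only a proxy for re-replication; each gene was hit by three separate siRNAs, and active genes were retested.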 The numbers tell different reagents against one gene apart. Further read-outs or replicates are left out here. Not stated in the record: the amount of reagent.

Screen: 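Genome-wide screen for genes that prevent DNA re-replication in cancer cells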 (primary screen)
Cells: human HCT116 colorectal cancer cells
Reagents: single siRNA against human genes
Timing: 3 days
Detection: 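Nuclei stained with Hoechst and imaged; cell-cycle phase assigned by DNA content; G2 share scaled per plate, non-targeting siRNA 0%, GMNN siRNA 100%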
Scale: G2 robust z-score and G2 cells, % of GMNN control: higher = more G2 cells, more excess DNA replication
Hit rule: 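An siRNA counts as active if its G2 robust z-score lies at least 5 MADs above the screen median; here such calls match roughly 38% of GMNN control or more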

G2 robust z-score	G2 cells, % of GMNN control	Call	target gene	reagent no.
-0.256	1.16	inactive	PLCL2 (GeneID 23228)	1
2.24	18.7	inactive	PLCL2 (GeneID 23228)	2
1.78	15.5	inactive	PLCL2 (GeneID 23228)	3
1.41	12.9	inactive	TBC1D12 (GeneID 23232)	1
0.259	4.79	inactive	TBC1D12 (GeneID 23232)	2
0.159	4.09	inactive	TBC1D12 (GeneID 23232)	3
1.52	13.7	inactive	ARL5A (GeneID 26225)	1
-0.357	0.453	inactive	ARL5A (GeneID 26225)	2
0.852	8.96	inactive	ARL5A (GeneID 26225)	3
2.8	22.6	inactive	USP18 (GeneID 11274)	1
-0.344	0.548	inactive	USP18 (GeneID 11274)	2
-0.242	1.26	inactive	USP18 (GeneID 11274)	3
1.15	11	inactive	FTCDNL1 (GeneID 348751)	1
-0.725	-2.13	inactive	FTCDNL1 (GeneID 348751)	2
0.0348	3.21	inactive	FTCDNL1 (GeneID 348751)	3
0.27	4.87	inactive	TMUB2 (GeneID 79089)	1
0.143	3.97	inactive	TMUB2 (GeneID 79089)	2
1.86	16	inactive	TMUB2 (GeneID 79089)	3
-0.526	-0.731	inactive	ABCF2 (GeneID 10061)	1
-0.367	0.384	inactive	ABCF2 (GeneID 10061)	2
-0.924	-3.53	inactive	ABCF2 (GeneID 10061)	3
0.105	3.71	inactive	GALNT9 (GeneID 50614)	1
-1.08	-4.64	inactive	GALNT9 (GeneID 50614)	2
1.22	11.5	inactive	GALNT9 (GeneID 50614)	3
0.201	4.38	inactive	MSRB1 (GeneID 51734)	1
-1.12	-4.95	inactive	MSRB1 (GeneID 51734)	2
-0.937	-3.63	inactive	MSRB1 (GeneID 51734)	3
-1.4	-6.88	inactive	SLC2A2 (GeneID 6514)	1
0.195	4.34	inactive	SLC2A2 (GeneID 6514)	2
-0.391	0.213	inactive	SLC2A2 (GeneID 6514)	3
-0.463	-0.292	inactive	S100A11 (GeneID 6282)	1
0.707	7.94	inactive	S100A11 (GeneID 6282)	2
0.389	5.71	inactive	S100A11 (GeneID 6282)	3
-0.51	-0.619	inactive	COL20A1 (GeneID 57642)	1
-1.04	-4.37	inactive	COL20A1 (GeneID 57642)	2
1.22	11.6	inactive	COL20A1 (GeneID 57642)	3
0.904	9.33	inactive	ZNF497 (GeneID 162968)	1
0.091	3.61	inactive	ZNF497 (GeneID 162968)	2
0.376	5.61	inactive	ZNF497 (GeneID 162968)	3
5.84	44.1	active	CNDP2 (GeneID 55748)	1
-1.57	-8.06	inactive	CNDP2 (GeneID 55748)	2
-0.481	-0.419	inactive	CNDP2 (GeneID 55748)	3
-0.609	-1.32	inactive	CHMP7 (GeneID 91782)	1
-0.241	1.27	inactive	CHMP7 (GeneID 91782)	2
1.61	14.3	inactive	CHMP7 (GeneID 91782)	3
-0.825	-2.84	inactive	FTHL17 (GeneID 53940)	1
-0.292	0.912	inactive	FTHL17 (GeneID 53940)	2
0.634	7.43	inactive	FTHL17 (GeneID 53940)	3
2.48	20.4	inactive	AKAP12 (GeneID 9590)	1
-1.08	-4.64	inactive	AKAP12 (GeneID 9590)	2
-0.164	1.82	inactive	AKAP12 (GeneID 9590)	3
-0.796	-2.63	inactive	SLC6A20 (GeneID 54716)	1
-0.332	0.633	inactive	SLC6A20 (GeneID 54716)	2
4.55	35	inactive	SLC6A20 (GeneID 54716)	3
4.36	33.6	inactive	TBPL2 (GeneID 387332)	1
0.368	5.56	inactive	TBPL2 (GeneID 387332)	2
-0.48	-0.409	inactive	TBPL2 (GeneID 387332)	3
-0.561	-0.983	inactive	SERPINB1 (GeneID 1992)	1
-0.112	2.18	inactive	SERPINB1 (GeneID 1992)	2
-0.703	-1.98	inactive	SERPINB1 (GeneID 1992)	3
4.26	33	inactive	LGR5 (GeneID 8549)	1
-0.438	-0.117	inactive	LGR5 (GeneID 8549)	2
3.47	27.4	inactive	LGR5 (GeneID 8549)	3
1.42	12.9	inactive	ECSIT (GeneID 51295)	1
-1	-4.09	inactive	ECSIT (GeneID 51295)	2
0.193	4.32	inactive	ECSIT (GeneID 51295)	3
-0.432	-0.0752	inactive	SYT8 (GeneID 90019)	1
0.174	4.19	inactive	SYT8 (GeneID 90019)	2
3.24	25.8	inactive	SYT8 (GeneID 90019)	3

Hits (from the list above):
G2 robust z-score	G2 cells, % of GMNN control	Call	target gene	reagent no.
5.84	44.1	active	CNDP2 (GeneID 55748)	1
